Test results reported in patent US20220339285A1, “DISSACHARIDE FORMULATIONS FOR CONTROLLED DRUG RELEASE” (TECHNICAL UNIVERSITY OF DENMARK, priority 2019, published 2022).
Structures can show the parent of a compound that is named as a salt. For some assays here: At least one read-out could not be matched to a standard name with certainty. For some assays here: At least one compound was matched to its structure with a doubt left.

Experiments:
Assay type in all cases: physicochemical
[1] = In vitro release of Gardiquimod and Resiquimod from SuBen gels with different co-solvents, HPLC (Example 28); conditions: 7 day; for average in vitro release of Resiquimod: 1.2 mg/g, PBS 37° C
Description: SuBen:GTO:EtOH (60:25:15 (% w/w)) and SuBen:Lipiodol:EtOH (60:25:15 (% w/w)) were prepared by simple mixing and sonication (80° C., 90-120 min) as described in example 19. […] SuBen:GTO:EtOH:PLA (60:25:15:0.5 (% w/w)), SuBen:Ethyl-palmitate:EtOH (60:25:15 (% w/w)), and SuBen:Ethyl-oleate:EtOH (60:25:15 (% w/w)) were prepared by simple mixing and sonication (80° C., 90-120 min) as described in example 19. […] The vials are closed with lids and are incubated at 37° C. At each sampling point, take 1 mL of buffer and place it inside an Eppendorf tube. Then add 1 mL of fresh buffer to replace the taken sample. The samples are analyzed by HPLC. […] For both compounds, the flowrate was 1 mL/min and the column temperature was 40° C.

[2] = Co-solubilization of R848 and RepSox in LOIB gel (Example 15); conditions: in 1 g of gel, with 8 mg/g RepSox
Description: The mixture was solubilized using a magnetic stirring for 2 hours at 40-50° C. under continuous visual inspection.

[3] = In vitro release of R848 from LOIB and SuBen gels into PBS, fluorescence (Examples 3, 10, 11); conditions: for total cumulative release of R848: 1.5 mg/mL R848, 14 days, PBS
[4] = Effect of temperature and pH on transesterification of R848 in LOIB gels (Example 25); conditions: for percentage of R848-IBA at equilibrium: 37° C
[5] = Solubility of doxorubicin base and HCl salt in gels (Example 33); conditions: 0.8 mg/g in SuBen:GTO:EtOH (60:25:15) and LOIB:GTO:EtOH (82.5:7.5:10)

## CCOCc1nc2c(N)nc3ccccc3c2n1CC(C)(C)O [Resiquimod (R848), Resiquimod]
[1]
  reduction of Resiquimod release on substitution of GTO with Ethyl-palmitate or Ethyl-oleate: 2.5 fold
[1]; SuBen gel with Ethyl-palmitate or Ethyl-oleate as co-solvent
  average in vitro release of Resiquimod: 15%
[1]; SuBen gel with GTO as co-solvent
  average in vitro release of Resiquimod: −39%
[2]
  dissolved together with RepSox in LOIB:GTO:EtOH (82.5:7.5:10) gel: 2.4 mg
[3]; LOIB gel with vs without PLA
  reduction of burst release of R848 by addition of 0.5 (% w/w) PLA: around 50%
[3]; LOIB:GTO:EtOH (80:10:10) gel without PLA
  total cumulative release of R848: 60%
[3]; LOIB:GTO:EtOH:PLA (79.5:10:10:0.5) gel
  total cumulative release of R848: less than 50%
[4]
  reduction in the conversion rate at 4° C vs 37° C: ~5 fold
[4]; LOIB gel with benzoic acid (BA), equilibrium after 3 days
  percentage of R848-IBA at equilibrium: around 18%
[4]; after 5 days at 4° C, LOIB:GTO:EtOH (82.5:7.5:10), 1.2 mg/g R848
  R848-IBA present in gel: around 15%
[4]; after 5 days at 37° C, LOIB:GTO:EtOH (82.5:7.5:10), 1.2 mg/g R848
  R848 converted to R848-IBA: approximately 70%
[4]; regular LOIB gel and gel with TEA, day 14
  percentage of R848-IBA at equilibrium: around 80%

## COc1cccc2c1C(=O)c1c(O)c3c(c(O)c1C2=O)C[C@@](O)(C(=O)CO)C[C@@H]3O[C@H]1C[C@H](N)[C@H](O)[C@H](C)O1 [DOX-HCl, doxorubicin-HCl]
[5]
  solubilization in LOIB and SuBen gels: not solubilized

## COc1cccc2c1C(=O)c1c(O)c3c(c(O)c1C2=O)C[C@@](O)(C(=O)CO)C[C@@H]3O[C@H]1C[C@H](N)[C@H](O)[C@H](C)O1 [DOX base, doxorubicin]
[5]; listed as Doxorubicin in base form
  solubilization in LOIB and SuBen gels: fully solubilized
